Assay results taken from publication PMC7819943, “Rice protein-binding microarrays: a tool to detect cis-acting elements near promoter regions in rice”.
The other results are listed elsewhere or left out.

Chains of the proteins cited; added tags and fusions are not shown.
UniProt Q0JBA9, entry or part of it: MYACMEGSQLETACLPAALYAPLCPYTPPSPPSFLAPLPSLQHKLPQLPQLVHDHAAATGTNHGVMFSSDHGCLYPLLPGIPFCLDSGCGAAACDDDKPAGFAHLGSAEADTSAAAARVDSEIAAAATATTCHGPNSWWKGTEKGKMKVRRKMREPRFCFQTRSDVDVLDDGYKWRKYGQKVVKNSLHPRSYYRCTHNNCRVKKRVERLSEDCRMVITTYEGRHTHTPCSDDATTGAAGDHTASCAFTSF

Molecular target: OsWRKY34 (Oryza sativa, UniProt Q0JBA9 1-250)
Assay: protein-binding microarray (RPBM); PBS, 2% BSA, 51.3 ng/ul salmon testes DNA, 50 uM zinc acetate, 200 nM TF, 25 C, 1 h; high values mean tight binding
Settings: protein: recombinant; tags: N-terminal polyhistidine and DsRed monomer fusion (pET32a); label: CyDye5-dUTP incorporated in the synthesized complementary strand; 3' TTTTT single-stranded linker to array surface; dsDNA, one strand shown
Summary of the method: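 In PBS with 2% BSA, salmon testes DNA and 50 µM zinc acetate, 200 nM protein was incubated on a custom Agilent array at 25 °C for 1 h and then washed off. The array had been made double-stranded by primer extension with Cy5-dUTP and blocked with 2% BSA. The proteins were transcription factors fused N-terminally to polyhistidine and DsRed, expressed in E. coli BL21-CodonPlus and purified on Ni–NTA. The binding signal is per-feature fluorescence intensity (arbitrary units) from an Axon 4000B scanner.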

| Sequence | binding signal |
| --- | --- |
| AGCTTTATATTACCCGCGTCCTAAAAAGATTACAGTTTTTCGGAGTCACCTAGTGCAG | 8190 fluorescence intensity (a.u.) |
| GTTTGTGGTTCAGTTTTTGTCCCCATGGGTCTCTTAGCGGCGGAGTCACCTAGTGCAG | 9120 fluorescence intensity (a.u.) |
| ACGTCATCCCACCGCGGCTGCTTTCCATTTCCGCCACAGCCGGAGTCACCTAGTGCAG | 12600 fluorescence intensity (a.u.) |
| GGCAGGCAAGGGGAGGGGCAGGAAGAAGGGAAGAATTGAACGGAGTCACCTAGTGCAG | 9270 fluorescence intensity (a.u.) |
| CCCTATTTATACAGCTCAGCACCCTCACTCCCACTCACAACGGAGTCACCTAGTGCAG | 11300 fluorescence intensity (a.u.) |
| TATTCAACTTGCGTCAAAATTAGATCCTTACAATTCTCTCCGGAGTCACCTAGTGCAG | 8290 fluorescence intensity (a.u.) |
| AGCCACACCCCAACTTTAACACGTCTCAGTTGACTATAAACGGAGTCACCTAGTGCAG | 8300 fluorescence intensity (a.u.) |
| GTCCGCCTATGAGTCTATCATTCCTCCTTTTTTCCCTTCTCGGAGTCACCTAGTGCAG | 12800 fluorescence intensity (a.u.) |
| GCTCATAGGGATAGGGTTTGCGTGCATGTGTTTATAGGGGCGGAGTCACCTAGTGCAG | 12500 fluorescence intensity (a.u.) |
| GGAGTATGACAGGTGGGGCCGCGTCAGGGGTATTTTGGTCCGGAGTCACCTAGTGCAG | 8480 fluorescence intensity (a.u.) |
| ACATCACTACATCAGAGCTTGAAGCTCTCTTCTCTCTCTCCGGAGTCACCTAGTGCAG | 8160 fluorescence intensity (a.u.) |
| CGTCTCCTGCTCGAGTCATCGTCCCCACTGCGTGCACAAGCGGAGTCACCTAGTGCAG | 8910 fluorescence intensity (a.u.) |
| GGTCAAGGCGACATTGCTACTCTTTGCCTATAAATCAATCCGGAGTCACCTAGTGCAG | 8100 fluorescence intensity (a.u.) |
| GCCGTCCTGCAGTTCCTATTTATTTCTTTTGGTGTGTGTGCGGAGTCACCTAGTGCAG | 8390 fluorescence intensity (a.u.) |
| CTAACAAGTACACCTTGATTGAAGTGGATTTTATTATTACCGGAGTCACCTAGTGCAG | 8930 fluorescence intensity (a.u.) |
| TTTCTGTATCTTTGACATCGGCGCTCCTAATATGTCACCGCGGAGTCACCTAGTGCAG | 9170 fluorescence intensity (a.u.) |
| CTGCAGCTACCAACCTCCTCCCGGCGCGCTTGCTTTCTGCCGGAGTCACCTAGTGCAG | 8490 fluorescence intensity (a.u.) |
| CAACCCCACCGCCGCCGCCGCAAACCGTCTCGCCGTCGCCCGGAGTCACCTAGTGCAG | 11600 fluorescence intensity (a.u.) |
| GGATTGTTTTTGGTATAGCTCCAACTCCTAAATTTAGCTCCGGAGTCACCTAGTGCAG | 8480 fluorescence intensity (a.u.) |
| ACATCTGTAAAAATCGTGCTCTATTTTCGCATGCGACTCTCGGAGTCACCTAGTGCAG | 9450 fluorescence intensity (a.u.) |
| TACCACCTCTCATGTCTCCTATGTCGATCTAAACATTTCTCGGAGTCACCTAGTGCAG | 9460 fluorescence intensity (a.u.) |

Eleven successive entries from above, for reference:

| Sequence | binding signal |
| --- | --- |
| CCCTATTTATACAGCTCAGCACCCTCACTCCCACTCACAACGGAGTCACCTAGTGCAG | 11300 fluorescence intensity (a.u.) |
| TATTCAACTTGCGTCAAAATTAGATCCTTACAATTCTCTCCGGAGTCACCTAGTGCAG | 8290 fluorescence intensity (a.u.) |
| AGCCACACCCCAACTTTAACACGTCTCAGTTGACTATAAACGGAGTCACCTAGTGCAG | 8300 fluorescence intensity (a.u.) |
| GTCCGCCTATGAGTCTATCATTCCTCCTTTTTTCCCTTCTCGGAGTCACCTAGTGCAG | 12800 fluorescence intensity (a.u.) |
| GCTCATAGGGATAGGGTTTGCGTGCATGTGTTTATAGGGGCGGAGTCACCTAGTGCAG | 12500 fluorescence intensity (a.u.) |
| GGAGTATGACAGGTGGGGCCGCGTCAGGGGTATTTTGGTCCGGAGTCACCTAGTGCAG | 8480 fluorescence intensity (a.u.) |
| ACATCACTACATCAGAGCTTGAAGCTCTCTTCTCTCTCTCCGGAGTCACCTAGTGCAG | 8160 fluorescence intensity (a.u.) |
| CGTCTCCTGCTCGAGTCATCGTCCCCACTGCGTGCACAAGCGGAGTCACCTAGTGCAG | 8910 fluorescence intensity (a.u.) |
| GGTCAAGGCGACATTGCTACTCTTTGCCTATAAATCAATCCGGAGTCACCTAGTGCAG | 8100 fluorescence intensity (a.u.) |
| GCCGTCCTGCAGTTCCTATTTATTTCTTTTGGTGTGTGTGCGGAGTCACCTAGTGCAG | 8390 fluorescence intensity (a.u.) |
| CTAACAAGTACACCTTGATTGAAGTGGATTTTATTATTACCGGAGTCACCTAGTGCAG | 8930 fluorescence intensity (a.u.) |

(next part)

| Sequence | binding signal |
| --- | --- |
| GGGCCCACCACCCAACCCACCTCTCCTCTCCCGCGGTCAACGGAGTCACCTAGTGCAG | 10400 fluorescence intensity (a.u.) |
| CCTCTTGTTGACCACCGCTCATTGCCCTCCCATCAGTTGCCGGAGTCACCTAGTGCAG | 8320 fluorescence intensity (a.u.) |
| TATGGTTGGTTCTTATGTGTCCCTAAGCGTGCAAAAAATACGGAGTCACCTAGTGCAG | 12000 fluorescence intensity (a.u.) |
| TCATCTGTATGATATATAGTACTACATCTTTTGACATTTTCGGAGTCACCTAGTGCAG | 10300 fluorescence intensity (a.u.) |
| CCGTTTCTTGAATTCGTCGCTTCTTTTGCTGTTCGATTCTCGGAGTCACCTAGTGCAG | 12800 fluorescence intensity (a.u.) |
| GTGCGGCCATATCGGCCCGATTGAGATTACTTCCTTGTGACGGAGTCACCTAGTGCAG | 8080 fluorescence intensity (a.u.) |
| GAATGTAATCATCTTCTCTCTAATCTAATACACACAGTACCGGAGTCACCTAGTGCAG | 8120 fluorescence intensity (a.u.) |
| ATTCCCACGCAACATTGTCCCCGCGGAGTCCACAGAGAAACGGAGTCACCTAGTGCAG | 8290 fluorescence intensity (a.u.) |
| ACCTGCACCCGGACTTCCCTTATTCTTCTGATTCATCCTGCGGAGTCACCTAGTGCAG | 8050 fluorescence intensity (a.u.) |
| CGAATCGATATGGGCCGTTAGATCTCCTTTTGTCTCTTTACGGAGTCACCTAGTGCAG | 8520 fluorescence intensity (a.u.) |
| GTAGGGGTAGGGGTGGCGTGGCGTGTGCCAATGACCTAACCGGAGTCACCTAGTGCAG | 11300 fluorescence intensity (a.u.) |
| TCTGCCGTTTGTATAGTAGCTCGATCTTGTTCCTGCCAAACGGAGTCACCTAGTGCAG | 8630 fluorescence intensity (a.u.) |
| ACATGCCCATGCGCGACACGTGCACCTCCTCATCCAAACTCGGAGTCACCTAGTGCAG | 8280 fluorescence intensity (a.u.) |
| AGCAGTTGACCAGCGGGCTACAAGTCAACTCCCGGCCCATCGGAGTCACCTAGTGCAG | 8620 fluorescence intensity (a.u.) |
| TATTGATCGCGTCAGCTTCCACTTGCGTTGTTCTTTGCGGCGGAGTCACCTAGTGCAG | 8580 fluorescence intensity (a.u.) |
| AATCCCACCGCCTCAATCCACCACCGCCAAGTTTCAAATCCGGAGTCACCTAGTGCAG | 8090 fluorescence intensity (a.u.) |
| CATTCAGTATTATATTGGTTTTTTATGGGATGGAGAGAGACGGAGTCACCTAGTGCAG | 8200 fluorescence intensity (a.u.) |
| CCAGCATAATAGACTAGCATCCCGAATATACCCCTGCCATCGGAGTCACCTAGTGCAG | 8980 fluorescence intensity (a.u.) |
| TGATTGCGCTCTCTCTCTCTCTCTCTCTCTCTCTCGTTCGCGGAGTCACCTAGTGCAG | 10100 fluorescence intensity (a.u.) |
| CCTTTTGCACATGTTGTATGTACCTTTTACACATGTTGTACGGAGTCACCTAGTGCAG | 9490 fluorescence intensity (a.u.) |
| ATCTTGTATTCAAATTGCATCGTTTAATCGTTACAGTTATCGGAGTCACCTAGTGCAG | 8040 fluorescence intensity (a.u.) |
